In PubChem BioAssay AID2685 (National Center for Advancing Translational Sciences (NCATS), 2010) one finds cell number change and AC50 data, which are given here for 42 molecules.

This assay can be described thus: qHTS Assay for Lipid Storage Modulators in Drosophila S3 Cells.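 For cell number change: cells counted by Cell Tracker Red CMTPX staining in the red channel.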 To be noted: BODIPY lipid droplet fluorescence, 18-24 h; for cell number change: measured here: cell count max response, cells fed with added oleic acid. In short, it runs like this:
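Drosophila S3 cells got compounds at several concentrations plus oleic acid (400 uM solution). Laser-scanning cytometry with 488 nm excitation read lipid droplets at 500-530 nm and cells at 575-640 nm. Percent activity was relative to 20 uM Triacsin C.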

The mark [1] stands for this setting: measured here: lipid fluorescence (Fed channel) AC50, cells fed with added oleic acid.
The mark [2] stands for this setting: measured here: cell number channel AC50, cells fed with added oleic acid.

A word on the AC50: it is the midpoint of the concentration-response curve, whichever way the signal moves. High values mean weaker potency, low ones greater potency.

The list shows a part of the results. Shown are side measurements of this screen, not its main read-out; they come without a call. Compounds called inactive in the main read-out are mostly missing here. Words in brackets tell the shape of the fitted curve; partial curves, single points and poor fits give uncertain potencies.

As for `NS(=O)(=O)c1ccc(CCNc2nc(CN3CCOCC3)nc3sc4c(c23)CCC4)cc1`, the cell number change is -10.2%.
As for `CCOc1ccc2c(CC)cc(=O)oc2c1OCC`, the cell number change was found to be 26.4%. For the same molecule, the AC50 under setting [1] is 2.91 µM [rising, partial curve].
As for `CCOC(=O)c1cc2sccc2n1CC(=O)Nc1ccc(OC)cc1OC`, the cell number change is 121%. In addition, the AC50 under setting [2] was 8.2 µM [rising, partial curve]. The AC50 under setting [1] was 10.3 µM [rising, partial curve].
`O=C(/C=C/c1ccc(F)cc1)NCCNC(=O)/C=C/c1ccc(F)cc1`: the cell number change was -3.43%. The AC50 under setting [1] was 0.231 µM [falling, partial curve].
For `O=C(NCCc1ccc(Cl)cc1)C1CCCN(S(=O)(=O)N2CCCCCC2)C1` (centres undefined), the cell number change was determined as 19.9%. Also, the AC50 under setting [2] was 0.0461 µM [rising, full curve, poor fit].
Consider `CCC(=O)N1CCc2cc(S(=O)(=O)CCC(=O)NCCc3ccccc3)ccc21`, for which the AC50 is 6.51 µM [falling, single point] under setting [2] and 6.51 µM [falling, single point] under setting [1].
As for `Cc1occc1-c1nnc(SCC(=O)N2CCN(c3ccccc3F)CC2)n1C`, the cell number change was -6.58%. Further, the AC50 under setting [2] is 0.13 µM [rising, full curve, poor fit]. Besides, the AC50 under setting [1] is 11.6 µM [rising, partial curve, poor fit].
As for `COc1ccc(/C(O)=C2/C(=O)C(=O)N(c3ncccn3)C2c2ccc(OC)cc2)cc1` (centres undefined), the cell number change was -33%. In addition, the AC50 under setting [2] was 20.6 µM [falling, single point]. Besides, the AC50 under setting [1] is 3.66 µM [falling, full curve].
As to `Cc1ccccc1CSc1nnc(-c2ccccc2)c(=O)[nH]1`, the cell number change came to 2.05%. Further, under setting [2], the AC50 was 0.651 µM [falling, single point].
In the case of `COc1ccc(Cl)cc1NC(=S)NCc1ccco1`, the cell number change was determined as 18.8%. In addition, the AC50 under setting [1] was 29.1 µM [rising, single point].
As for `O=C(N/N=C/c1ccc(OC(=O)c2cccs2)cc1)c1ccccn1`, the cell number change was -2.48%. Besides, under setting [1], the AC50 was 29.1 µM [rising, single point].
Regarding `CCC1Sc2ccc(S(=O)(=O)CCC(=O)NCc3ccco3)cc2NC1=O` (centres undefined), the cell number change is -7.58%.
Take `COc1cccc(-c2ccc(-c3noc(-c4cccs4)n3)c(OC)n2)c1`: the cell number change was found to be 26.8%. Also, the AC50 under setting [1] is 0.58 µM [falling, single point].
With `Cc1cc(N2CCN(C)CC2)nc(=S)[nH]1`, the cell number change is -0.611%.
Consider `CCOc1ccccc1C(=O)NCC(=O)OCC(=O)c1ccc2c(c1)OCCO2`, for which the cell number change turned out to be 2.94%. Also, under setting [1], the AC50 was 5.17 µM [rising, full curve, poor fit].
Take `Cc1cc(C)n(Cc2ccc(Cl)c(Cl)c2)c(=O)c1S(=O)(=O)c1ccccc1`: the cell number change was found to be 9.25%. For the same molecule, the AC50 under setting [1] is 6.51 µM [rising, single point].
Turning to `Cn1c(=O)oc2cc(S(=O)(=O)Nc3ccc(Cl)cc3)ccc21`, the cell number change was -20.1%. Also, the AC50 under setting [1] was 29.1 µM [falling, single point].
In the case of `Cc1cccc2c1nc(-c1ccccc1)n1cnnc21`, the AC50 by setting is: under setting [2], 0.461 µM [rising, full curve]; under setting [1], 0.58 µM [rising, full curve].
For the molecule `Cc1cccc(C(=O)N=C2SC3CS(=O)(=O)CC3N2c2ccccc2)c1` (centres undefined), the cell number change came to 23.2%. Also, the AC50 under setting [1] is 29.1 µM [rising, single point].
As to `CCOc1ccc(C2CC(c3ccc(CC)cc3)n3nc(N)nc3N2)cc1` (centres undefined), the AC50 under setting [1] was 0.731 µM [falling, single point].
With `Cc1ccc(Nc2c(-c3ccc(C)o3)nc3cnccn23)cc1`, the cell number change is 0.79%. In addition, the half-maximal activity concentration (AC50) under setting [1] was 7.31 µM [rising, partial curve].
As to `COc1cc(C(=O)OCC(=O)N2CCNC2=O)cc(Cl)c1OC`, the cell number change came out at 30.1%. Also, the AC50 under setting [2] is 14.6 µM [rising, single point].
Consider `CC(Oc1cccc(Cl)c1)C(=O)N1CCN(c2ncccn2)CC1` (centres undefined), for which the cell number change was -5.21%. The AC50 under setting [1] was 0.651 µM [falling, single point].
For `O=C(CCCOc1ccccc1)Nc1ccc(S(=O)(=O)Nc2ccccn2)cc1`, the cell number change is -9.86%.
With `Cc1nc(NC(=O)COc2ccccc2)sc1C(=O)Nc1ccccc1`, the AC50 under setting [1] is 6.51 µM [rising, single point].
`CCCOc1cccc(C(=O)O)c1`: the cell number change came to 5.75%. For the same molecule, the concentration at half-maximal activity (AC50) under setting [1] was 0.00517 µM [falling, full curve, poor fit].
`CCCOP(=O)(c1ccc(N(C)C)cc1)C(O)c1ccc(Cl)cc1` (centres undefined): the cell number change was found to be 11.6%. Further, the AC50 under setting [1] is 29.1 µM [falling, single point].
For `CN(CC(=O)Nc1ccccc1Sc1ccccc1)C1CCCCC1`, the cell number change was -25.4%. In addition, the AC50 under setting [1] is 20.6 µM [falling, single point].
As to `CC1(C)CC(=O)C(C(=O)/C=C/c2ccco2)C(=O)C1`, the cell number change is -17.4%. Moreover, under setting [1], the AC50 is 6.51 µM [falling, partial curve].
Regarding `CCOP(=O)(c1ccccc1)C1(O)CCCCC1` (centres undefined), the cell number change is -23.7%. Also, under setting [1], the AC50 was 23.1 µM [falling, partial curve].
On to `CCn1c(SCC(=O)OCc2ccccc2)nnc1-c1ccco1`, for which the cell number change is -10.4%.
On to `CCCOc1ccc(CNC(=O)C2CCN(C(=O)N3CCOc4ccccc43)CC2)cc1`, for which the cell number change stood at 10.1%. In addition, the AC50 under setting [1] is 3.26 µM [rising, full curve].
Regarding `CC1(C)Cc2ccccc2C(=NCCCC(=O)O)N1`, the cell number change came out at 6.56%.
Consider `COC(=O)C1=C(C)N(Cc2ccccc2)C(=NCc2ccc(OC)cc2)N[C@H]1c1ccccc1`, for which the cell number change was -9.36%. Besides, the AC50 under setting [1] is 29.1 µM [falling, single point].
`O=C(CSCc1cnn(-c2ccccc2)c1-n1cccc1)N1CCN(Cc2ccccc2)CC1`: the cell number change was -17.6%.
On to `Nc1nc(NCc2ccccc2)n(-c2ccccc2)n1`, for which the cell number change came to 25.2%. The AC50 under setting [1] is 8.2 µM [rising, partial curve, poor fit].
As to `Cn1cccc1C(=O)NC(=O)COC(=O)CNC(=O)CNC(=O)c1ccc(Cl)cc1Cl`, the cell number change is -28%. Besides, the half-maximal activity concentration (AC50) under setting [1] was 29.1 µM [falling, single point].
`O=C(NNC(=O)C1CC1)Nc1ccc(Cl)cc1`: the concentration at half-maximal activity (AC50) under setting [1] was 0.58 µM [falling, single point].
For `COc1cc(C(=O)Nc2ccc(Cl)c([N+](=O)[O-])c2)cc(OC)c1OC`, the cell number change is 2.48%.
Consider `COc1ccc(CCN2CCCn3c2nc2c3c(=O)n(CC(N)=O)c(=O)n2C)cc1OC`, for which, under setting [1], the AC50 is 4.11 µM [falling, single point].
As to `COc1ccc(NC(=S)NC(=O)/C=C/c2ccccc2)cc1`, the cell number change was -14.6%. Besides, the AC50 under setting [1] is 29.1 µM [falling, single point].
`CN(C)CC(O)CN1C(=O)N(CN2C(=O)N(CC(O)CN(C)C)C(=O)C2(C)C)C(C)(C)C1=O` (centres undefined): the cell number change is -1.58%.
